Assay results: article PMC10665234, “Nutritional Supplementation and Enhanced Antioxidant Function by Dietary Intake of Selenoneine and Other Selenium Compounds in Red Seabream Pagrus major” (Marine Biotechnology (New York, N.y.), 2023)

Assay: Growth (body weight) of red seabream during the feeding experiment
Format: in vivo, red seabream Pagrus major

SMILES | body weight (2 weeks, diet 1 mg Se/kg added) [g] | body weight (2 weeks, diet 2 mg Se/kg added) [g] | body weight (4 weeks, diet 1 mg Se/kg added) [g] | body weight (4 weeks, diet 2 mg Se/kg added) [g] | body weight (5 weeks, diet 1 mg Se/kg added) [g] | body weight (5 weeks, diet 2 mg Se/kg added) [g]
C[Se]CC[C@H](N)C(=O)O [Selenomethionine, Seleno-L-methionine] | 313 ± 52 | 309 ± 32 | 316 ± 22 | 333 ± 33 | 307 ± 65 | 322 ± 45
C[N+](C)(C)[C@@H](Cc1cnc([Se-])[nH]1)C(=O)O [Selenoneine, 2-selenyl-Nα, Nα, Nα-trimethyl-L-histidine] | 275 ± 56 | 338 ± 39 | 321 ± 47 | 378 ± 58 | 308 ± 52 | 394 ± 61
O=[Se]([O-])[O-].[Na+].[Na+] [Sodium selenite, reference compound] | 296 ± 46 | 290 ± 48 | 359 ± 50 | 351 ± 62 | 316 ± 55 | 363 ± 72
